These results are taken from PMC11339399.

The chains behind the UniProt entries cited, without tags or fusion partners.
UniProt P37802: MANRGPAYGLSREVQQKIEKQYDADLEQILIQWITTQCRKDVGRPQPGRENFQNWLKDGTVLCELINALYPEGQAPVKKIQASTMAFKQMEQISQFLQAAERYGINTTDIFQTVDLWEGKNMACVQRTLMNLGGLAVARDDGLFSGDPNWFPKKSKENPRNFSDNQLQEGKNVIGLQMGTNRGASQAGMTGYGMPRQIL
UniProt P67809: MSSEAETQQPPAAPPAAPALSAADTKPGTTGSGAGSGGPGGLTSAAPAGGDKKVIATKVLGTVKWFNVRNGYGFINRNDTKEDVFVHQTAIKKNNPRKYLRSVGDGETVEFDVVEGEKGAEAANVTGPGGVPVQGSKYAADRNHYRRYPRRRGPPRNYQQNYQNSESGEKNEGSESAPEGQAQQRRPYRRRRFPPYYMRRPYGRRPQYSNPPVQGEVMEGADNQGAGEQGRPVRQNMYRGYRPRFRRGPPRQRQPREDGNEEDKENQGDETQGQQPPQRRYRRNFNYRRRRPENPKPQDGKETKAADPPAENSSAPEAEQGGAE
UniProt P01106: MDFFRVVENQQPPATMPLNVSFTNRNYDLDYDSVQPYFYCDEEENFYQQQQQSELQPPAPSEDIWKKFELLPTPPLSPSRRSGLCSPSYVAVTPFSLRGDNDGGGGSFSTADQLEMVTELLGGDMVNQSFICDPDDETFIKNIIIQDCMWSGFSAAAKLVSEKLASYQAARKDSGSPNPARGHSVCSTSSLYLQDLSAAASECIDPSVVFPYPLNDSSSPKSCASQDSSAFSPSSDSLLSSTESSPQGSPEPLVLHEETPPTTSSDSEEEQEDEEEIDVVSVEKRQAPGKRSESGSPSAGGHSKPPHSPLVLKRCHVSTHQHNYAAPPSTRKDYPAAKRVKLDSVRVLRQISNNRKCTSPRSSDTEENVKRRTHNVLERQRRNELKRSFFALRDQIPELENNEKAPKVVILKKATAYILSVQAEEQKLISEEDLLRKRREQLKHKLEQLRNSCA
UniProt P48436: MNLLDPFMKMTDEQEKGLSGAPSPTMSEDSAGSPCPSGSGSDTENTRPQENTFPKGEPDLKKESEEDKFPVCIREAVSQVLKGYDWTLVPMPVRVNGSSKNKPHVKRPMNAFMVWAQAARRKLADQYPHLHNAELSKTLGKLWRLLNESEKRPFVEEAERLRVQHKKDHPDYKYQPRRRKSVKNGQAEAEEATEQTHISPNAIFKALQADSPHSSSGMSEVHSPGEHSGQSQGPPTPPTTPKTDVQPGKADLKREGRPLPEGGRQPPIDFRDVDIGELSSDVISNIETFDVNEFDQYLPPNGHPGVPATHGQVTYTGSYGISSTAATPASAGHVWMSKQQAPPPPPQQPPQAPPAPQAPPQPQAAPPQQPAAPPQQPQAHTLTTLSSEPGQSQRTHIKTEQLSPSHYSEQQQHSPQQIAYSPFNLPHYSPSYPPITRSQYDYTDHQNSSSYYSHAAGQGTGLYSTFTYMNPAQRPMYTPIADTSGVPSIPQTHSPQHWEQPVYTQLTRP

One assay concerns the target TAGLN2 (human) (UniProt P37802). Kind of assay: co-IP; Pierce Co-IP kit; antibodies against the proteins themselves (anti-TAGLN2, anti-SOX9, anti-c-Myc, anti-SP1, anti-YBX1) coupled to resin; cell lysate overnight at 4 °C; Western blot. A general note: Immunoblotting shows a protein as a band on a membrane.
Assay [1] deals with YBX1 (human (endogenous in the paper's human cell lines; line not named)) (UniProt P67809). Described as above.
Another assay deals with Flag-YBX1 (UniProt P67809). The assay can be described thus: co-IP; Pierce Co-IP kit; anti-Flag or anti-HA coupled to resin; lysates of transfected cells (BGC-823 for Flag-TAGLN2 and HA-YBX1, wild type or fragments); overnight at 4 °C; Western blot.

These are yes or no findings as the source states them, for the method shown. In cells and extracts the contact can be indirect. Some results given as binding are weak or reduced against the parent protein; the word gives no strength.

c-Myc (from UniProt P01106 1-454): the binding result in the assay with TAGLN2 (human) was “binds”. Still for that read-out and setting: with SOX9 (from UniProt P48436 1-509) the entry was “binds”. On to TAGLN2 (from UniProt P37802 1-199), for which the binding result (in assay [1]; with Flag-YBX1) was “binds” in each case.
